PubChem BioAssay AID1224828 | NIAID – 2016
The whole screen tested about 17,000 reagents; this is an unselected part. 762 of all reagents (4.5%) were called active. 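Active calls include both raised and lowered p65 entry, mostly lowered; wells with fewer than 50 cells lack a z-score.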 The raw values are shown without normalisation. Reagent sequences are not shown.

Screen: 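Find genes required for NF-kappaB p65 moving into the nucleus after LPS in mouse macrophages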 (primary screen)
System: mouse RAW264.7 G9 macrophage reporter cells (GFP-p65, Tnf promoter-mCherry)
Reagent: siRNA pool against mouse genes, 100 nM
Duration: 2 days siRNA transfection, then 40 min LPS before fixation
Challenge: LPS (Salmonella minnesota R595) at 10 ng/ml
Detection: 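Imaged p65 nuclear translocation ratio, normalised to the plate median, converted to robust z-scores and averaged across two replicates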
Direction: p65 translocation robust z-score: higher = more nuclear NF-kappaB p65 after LPS than the plate median; nuclear/cytoplasmic p65 ratio: higher = more nuclear NF-kappaB p65
Active means: 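Active if robust z is above 3.3 (negative regulators) or below -1.56, the Tlr4 control median (positive regulators); activity score 50 or more; control wells not called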
Meaning of the calls: active = hit (p65 shift raised or lowered); inactive = no clear change

gene | p65 translocation robust z-score | nuclear/cytoplasmic p65 ratio, rep 1 | nuclear/cytoplasmic p65 ratio, rep 2 | low cell count flag | activity call
Fam131b | – | 1.36 | 1.4 | fewer than 50 cells per well; well left out of scoring | inactive
Bet1l | – | 1.13 | 1.3 | fewer than 50 cells per well; well left out of scoring | inactive
Lyz3 | -1.94 | 1.11 | 1.27 | enough cells to score | active
Llgl2 | 1.03 | 1.8 | 1.76 | enough cells to score | inactive
Gm5069 | 0.53 | 1.86 | 1.57 | enough cells to score | inactive
Or5d36 | -2.59 | 1.32 | 1.14 | enough cells to score | active
Brk1 | 0 | 1.5 | 1.55 | enough cells to score | inactive
Dph3 | 0.68 | 1.54 | 1.5 | enough cells to score | inactive
Plau | 1.1 | 1.58 | 1.61 | enough cells to score | inactive
Dynlt5 | 1.19 | 1.49 | 1.63 | enough cells to score | inactive
Atp6v1h | -0.25 | 1.56 | 1.59 | enough cells to score | inactive
Nrip2 | -0.28 | 1.16 | 1.36 | enough cells to score | inactive
Or55b4 | 0.25 | 1.52 | 1.23 | enough cells to score | inactive
Pctp | -0.39 | 1.39 | 1.18 | enough cells to score | inactive
Adgrg2 | – | 1.81 | 1.51 | fewer than 50 cells per well; well left out of scoring | inactive
Hfe | 0.65 | 1.57 | 1.42 | enough cells to score | inactive
Banf1 | -0.4 | 1.37 | 1.78 | enough cells to score | inactive
Or2a12 | -0.13 | 1.45 | 1.24 | enough cells to score | inactive
Zfp503 | 0.21 | 1.52 | 1.27 | enough cells to score | inactive
Dbpht2 | -0.97 | 1.36 | 1.48 | enough cells to score | inactive
Pomgnt1 | – | 1.17 | 1.07 | fewer than 50 cells per well; well left out of scoring | inactive
Ttc1 | 0.06 | 1.49 | 1.23 | enough cells to score | inactive
Pcx | -1.21 | 1.32 | 1.22 | enough cells to score | inactive
Il4 | -0.74 | 1.33 | 1.32 | enough cells to score | inactive
Arap1 | -1.05 | 1.42 | 1.63 | enough cells to score | inactive
Rsl1d1 | 0.57 | 1.66 | 1.54 | enough cells to score | inactive
Mmrn2 | -0.43 | 1.76 | 1.49 | enough cells to score | inactive
P2rx2 | 0.47 | 1.56 | 1.43 | enough cells to score | inactive
Psmc2 | – | 1.31 | 1.3 | fewer than 50 cells per well; well left out of scoring | inactive
Ranbp6 | -0.17 | 1.33 | 1.22 | enough cells to score | inactive
Htr5b | 0.18 | 1.58 | 1.45 | enough cells to score | inactive
Ikbke | -1.05 | 1.83 | 1.24 | enough cells to score | inactive
Col6a6 | 0.7 | 1.56 | 1.34 | enough cells to score | inactive
Hkdc1 | 0.62 | 1.65 | 1.97 | enough cells to score | inactive
Ythdf3 | 0.63 | 1.49 | 1.32 | enough cells to score | inactive
Celsr3 | – | 1.41 | 1.62 | fewer than 50 cells per well; well left out of scoring | inactive
Or6d15 | – | 1.46 | 1.16 | fewer than 50 cells per well; well left out of scoring | inactive
Mcrs1 | -1.69 | 1.48 | 1.28 | enough cells to score | active
Cdh6 | 0.92 | 1.56 | 1.53 | enough cells to score | inactive
Urod | -0.38 | 1.5 | 1.41 | enough cells to score | inactive
Prkg2 | – | 2.03 | 1.33 | fewer than 50 cells per well; well left out of scoring | inactive
Dipk2b | -0.87 | 1.19 | 1.17 | enough cells to score | inactive
Abcg3 | 0.58 | 1.69 | 1.78 | enough cells to score | inactive
Nectin3 | 0.53 | 1.67 | 1.52 | enough cells to score | inactive
Gpn3 | – | 1.31 | 1.6 | fewer than 50 cells per well; well left out of scoring | inactive
Cdca7l | 0.02 | 1.54 | 1.9 | enough cells to score | inactive
Cox4i2 | -0.42 | 1.54 | 1.69 | enough cells to score | inactive
Snx11 | 0.43 | 1.38 | 1.28 | enough cells to score | inactive
Deaf1 | -1.47 | 1.37 | 1.32 | enough cells to score | inactive
Reep4 | – | 1.15 | 1.22 | fewer than 50 cells per well; well left out of scoring | inactive
Ptpn9 | -0.73 | 1.39 | 1.32 | enough cells to score | inactive
Slc47a1 | 1.28 | 1.57 | 1.76 | enough cells to score | inactive
Or8b51 | 0.37 | 1.55 | 1.24 | enough cells to score | inactive
Alg14 | 1.55 | 1.61 | 1.62 | enough cells to score | inactive
Plekhg3 | -0.23 | 1.54 | 1.81 | enough cells to score | inactive
Irx6 | -1.33 | 1.34 | 1.27 | enough cells to score | inactive
Slc60a1 | -0.32 | 1.36 | 1.45 | enough cells to score | inactive
Mmp1b | -0.11 | 1.8 | 1.54 | enough cells to score | inactive
Snapc4 | – | 1.65 | 1.32 | fewer than 50 cells per well; well left out of scoring | inactive

Part of the list above, set out differently:
Or8b51
- p65 translocation robust z-score: 0.37
- nuclear/cytoplasmic p65 ratio, rep 1: 1.55
- nuclear/cytoplasmic p65 ratio, rep 2: 1.24
- low cell count flag: enough cells to score
- activity call: inactive

Alg14
- p65 translocation robust z-score: 1.55
- nuclear/cytoplasmic p65 ratio, rep 1: 1.61
- nuclear/cytoplasmic p65 ratio, rep 2: 1.62
- low cell count flag: enough cells to score
- activity call: inactive

Plekhg3
- p65 translocation robust z-score: -0.23
- nuclear/cytoplasmic p65 ratio, rep 1: 1.54
- nuclear/cytoplasmic p65 ratio, rep 2: 1.81
- low cell count flag: enough cells to score
- activity call: inactive

Irx6
- p65 translocation robust z-score: -1.33
- nuclear/cytoplasmic p65 ratio, rep 1: 1.34
- nuclear/cytoplasmic p65 ratio, rep 2: 1.27
- low cell count flag: enough cells to score
- activity call: inactive

Slc60a1
- p65 translocation robust z-score: -0.32
- nuclear/cytoplasmic p65 ratio, rep 1: 1.36
- nuclear/cytoplasmic p65 ratio, rep 2: 1.45
- low cell count flag: enough cells to score
- activity call: inactive
